In the test the target is HJ153. As to the kind of experiment: competition ELISA: 4 nM antibody pre-incubated 1 h with dilutions of E4+ human plasma, then on plate coated with recombinant ApoE4 (0.5 ug/mL) as competitor; anti-mouse IgG-HRP, OD450. On the technique in general: An ELISA detects its analyte on a solid surface through an enzyme-linked reagent.

Sequences of proteins named here, by UniProt entry; tags and fusion partners are left off. A change or cut given only in a name is not applied to a line headed by its entry. A line that says so, or that is headed by a name, gives the form on record, which may keep a tag or linker.
ApoE derived from human plasma lipoprotein (P02649, form named): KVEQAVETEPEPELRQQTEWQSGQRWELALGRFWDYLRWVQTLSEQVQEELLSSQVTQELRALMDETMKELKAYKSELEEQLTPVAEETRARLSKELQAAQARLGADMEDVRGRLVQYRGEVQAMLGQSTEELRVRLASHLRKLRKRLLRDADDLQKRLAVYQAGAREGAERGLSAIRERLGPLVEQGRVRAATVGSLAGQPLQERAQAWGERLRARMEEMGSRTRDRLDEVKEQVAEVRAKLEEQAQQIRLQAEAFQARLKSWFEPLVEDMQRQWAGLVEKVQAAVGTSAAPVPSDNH

Results are given in words; binding and its absence hold for the method and conditions named. Some binding calls cover weakened binding; strength is not graded here.

Turning to “ApoE derived from human plasma lipoprotein (from UniProt P02649 19-317) (ligand)”, the binding entry is listed as “binds”.

The record behind these values is patent US20250145697A1 (WASHINGTON UNIVERSITY, published 2025).
